Data as given in PubChem BioAssay AID1224826 (NIAID, 2016)
The whole screen tested about 17,000 reagents; this is a random part of them. Of all reagents, about 1,110 (6.6%) are marked active. 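Active means lowered or raised reporter signal; replicate intensities are raw and not normalised per plate.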 Entries without a mark were called inactive. Reagents against one gene are numbered here.

- Screen: 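Regulators of Tlr4 signalling leading to Tnf-alpha expression in macrophages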 (primary screen)
- System: RAW264.7 G9 macrophages from mouse bearing reporters for p65 (GFP) and the Tnf promoter (mCherry)
- Reagent: siRNA pool against mouse genes, 100 nM
- Duration: 16 h of LPS stimulation, after 2 days of siRNA transfection
- Treatment: bacterial lipopolysaccharide (Salmonella minnesota R595), 10 ng/ml
- Detection: 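Imaged Tnf reporter mCherry in nuclei, minus background, normalised per plate to the median and expressed as robust z-scores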
- Direction: Tnf reporter robust z-score: higher = stronger Tnf promoter reporter signal after LPS; Tnf reporter intensity: higher = stronger Tnf promoter reporter signal
- Hit rule: 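Called active when robust z-score is at most -1.3, matching the median of the Tlr4 knock-down control, or over 3; control wells and wells with under 50 cells never active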
- Meaning of the calls: active = Tnf reporter clearly lowered or raised; inactive = no clear change in Tnf reporter

The first 4 entries, ahead of the listing:
gene | reagent | Tnf reporter robust z-score | fewer than 50 cells in well | Tnf reporter intensity, replicate 1 | Tnf reporter intensity, replicate 2
Or10ak13 | 1 | -1.38 (active) | enough cells in well | 96.6 | 64.6
Trhde | 1 | -0.89 | enough cells in well | 216 | 42.2
Eid1 | 1 | -0.22 | enough cells in well | 186 | 148
Olfr100 | 1 | -0.88 | enough cells in well | 134 | 104

The listing, from the first entry:
gene | reagent | Tnf reporter robust z-score | fewer than 50 cells in well | Tnf reporter intensity, replicate 1 | Tnf reporter intensity, replicate 2
Or10ak13 | 1 | -1.38 (active) | enough cells in well | 96.6 | 64.6
Trhde | 1 | -0.89 | enough cells in well | 216 | 42.2
Eid1 | 1 | -0.22 | enough cells in well | 186 | 148
Olfr100 | 1 | -0.88 | enough cells in well | 134 | 104
Bcl2l12 | 1 | -1.37 (active) | enough cells in well | 72.6 | 84.6
Hnrnpk | 1 | 0.8 | enough cells in well | 247 | 287
Or13a27 | 1 | -0.78 | enough cells in well | 39.9 | 84.7
Tmem150c | 1 | 2.81 | enough cells in well | 214 | 219
Lrrc57 | 1 | 2.3 | enough cells in well | 396 | 139
Cep68 | 1 | -0.3 | enough cells in well | 206 | 164
Dynlrb1 | 1 | -0.76 | enough cells in well | 196 | 129
Ube2d2a | 1 | 1.25 | enough cells in well | 342 | 309
Noa1 | 1 | -0.86 | enough cells in well | 151 | 49.2
Ccnl2 | 1 | 1.24 | enough cells in well | 242 | 239
Or13f5 | 1 | 0.33 | enough cells in well | 186 | 144
Sva | 1 | – | fewer than 50 cells per well; well left out of calls | 52.5 | 56
Cphx1 | 1 | 0.77 | enough cells in well | 132 | 220
Tmem82 | 1 | -0.06 | enough cells in well | 190 | 140
Ntmt1 | 1 | 1.03 | enough cells in well | 221 | 96.3
Srsf11 | 1 | – | fewer than 50 cells per well; well left out of calls | 114 | 164
Or9m1b | 1 | -0.14 | enough cells in well | 174 | 148
Or13d1 | 1 | 1.17 | enough cells in well | 295 | 138
Hmga2 | 1 | -1.08 | enough cells in well | 146 | 124
2310002L09Rik | 1 | – | fewer than 50 cells per well; well left out of calls | 119 | 0
Guca2b | 1 | -0.26 | enough cells in well | 231 | 217
Spryd7 | 1 | 0.42 | enough cells in well | 208 | 162
Snrpd1 | 1 | – | fewer than 50 cells per well; well left out of calls | 31.3 | 24.3
Actc1 | 1 | 0.74 | enough cells in well | 168 | 261
Or2a54 | 1 | – | fewer than 50 cells per well; well left out of calls | 79 | 104
Zfp536 | 1 | -1.16 | enough cells in well | 59.2 | 75.4
Cst9 | 1 | 0.15 | enough cells in well | 200 | 179
Rbbp5 | 1 | 0.92 | enough cells in well | 433 | 249
Tesk1 | 1 | 1.78 | enough cells in well | 270 | 221
Sptssb | 1 | 0.6 | enough cells in well | 284 | 102
Or2n1 | 1 | 0.16 | enough cells in well | 211 | 113
B630019K06Rik | 1 | 0.46 | enough cells in well | 266 | 208
Hoxb7 | 1 | 0.66 | enough cells in well | 268 | 250
Spag11a | 1 | 1.32 | enough cells in well | 154 | 135
Rab3gap2 | 1 | 1.48 | enough cells in well | 230 | 244
Hilpda | 1 | 0.8 | enough cells in well | 230 | 168
Fdx1 | 1 | -0.67 | enough cells in well | 167 | 190
Jup | 1 | 0.58 | enough cells in well | 294 | 174
V1rg10 | 1 | 2.69 | enough cells in well | 220 | 176
Tefm | 1 | -0.17 | enough cells in well | 272 | 65.6
Unc93b1 | 1 | – | fewer than 50 cells per well; well left out of calls | 59.9 | 35.1
Klk1b8 | 1 | -0.2 | enough cells in well | 187 | 94.5
Ndufa5 | 1 | -1.59 (active) | enough cells in well | 106 | 48.4
Klra2 | 1 | -1.3 (active) | enough cells in well | 133 | 56.9
Gpatch2 | 1 | -1.07 | enough cells in well | 155 | 107
Oca2 | 1 | -0.09 | enough cells in well | 237 | 175
Rgl3 | 1 | 1.15 | enough cells in well | 202 | 153
Nup210 | 1 | -1.75 (active) | enough cells in well | 84.3 | 65.9
Smug1 | 1 | – | fewer than 50 cells per well; well left out of calls | 121 | 36.7
Cdv3 | 1 | -1.35 (active) | enough cells in well | 91.8 | 93.5
Pramel3c | 1 | – | fewer than 50 cells per well; well left out of calls | 254 | 57.9
S100a11 | 1 | 0.11 | enough cells in well | 256 | 256
Hey1 | 1 | -1.35 (active) | enough cells in well | 161 | 75.1
Xlr | 1 | 1.66 | enough cells in well | 187 | 126
Dis3l | 1 | 0.58 | enough cells in well | 216 | 185
Epm2a | 1 | -0.1 | enough cells in well | 221 | 223
Mpdu1 | 1 | 2.56 | enough cells in well | 256 | 290
Or2r3 | 1 | -0.05 | enough cells in well | 67.5 | 154
Tmcc3 | 1 | -0.63 | enough cells in well | 127 | 143
Prl8a1 | 1 | -0.31 | enough cells in well | 92.3 | 140
Neurl4 | 1 | -0.07 | enough cells in well | 162 | 146
A930037J23RIK | 1 | -1.09 | enough cells in well | 103 | 103
Ubox5 | 1 | -0.62 | enough cells in well | 99 | 150
Ca3 | 1 | -0.41 | enough cells in well | 127 | 171
Ybx1 | 1 | -0.49 | enough cells in well | 229 | 130
Carns1 | 1 | 1.18 | enough cells in well | 300 | 251
Or2y15 | 1 | -0.76 | enough cells in well | 151 | 78.3
Swap70 | 1 | -0.47 | enough cells in well | 99.9 | 56.8
Clstn1 | 1 | -0.37 | enough cells in well | 227 | 172
Pdcl | 1 | -0.35 | enough cells in well | 269 | 59.8
Nr2f2 | 1 | -0.07 | enough cells in well | 243 | 61.4
Nr2f2 | 2 | -1.12 | enough cells in well | 150 | 114
